From US12440469B2, “P-gp inducers as protectors against chemotherapy-induced side effects, such as peripheral neuropathy (CIPN) and hair loss” (Syddansk Universitet, priority 2019, dated 2025)
For at least one compound, name, drawing or mass did not settle the structure.

Columns and labels:
[1] = tested on: sensory neurons derived from induced pluripotent stem cells; assay: Paclitaxel damage in iPSC-derived sensory neurons, peripherin immunolabelling; type: cell-based, human; conditions: 48 hours pretreatment with 25 μM rifampicin, then paclitaxel 24 hours
[2] = tested on: iPSC-derived sensory neurons; assay: Vincristine neurotoxicity in iPSC-derived sensory neurons with or without MK-571 or rifampicin; type: cell-based, human; conditions: 25 μM rifampicin, 48 hours ahead of vincristine
Description: Sensory neurons were generated from human induced pluripotent stem cells (iPSCs) by implementing the well-established protocol by Chambers et. al. (Nat Biotech 2012). The neuronal differentiation was initiated when iPSCs achieved 70-80% confluency using KSR medium, which contained 82% KnockOut DMEM (Gibco, 10829-018) and 15% KnockOut Serum Replacement (KSR, ThermoFisher, 10828-028), 1% GlutaMAX-I (Gibco, 35050-038), 1% mini-mum essential medium non-essential amino acids (MEM-NEAA, Gibco, 11140-035), 1% P/S and 0.055 mM β-mercaptoethanol (Gibco, 21985023).
On days 0-5, SMAD signaling was inhibited by adding 0.1 μM LDN-193189 (Selleck, S7507) and 10 μM SB-431542 (Selleck, S1067) to the medium. Medium was changed daily, and N2 medium was added with 25% increments every other day starting on day 4 (100% N2 on day 10). N2 medium consists of 97% Neurobasal medium (Gibco, 21103-049) with 1% N2 Supplement (Gibco, 17502-048), 1% B27 Supplement (Gibco, 17504-044) and 1% P/S. On days 2-10, nociceptor induction was initiated with the addition of the three inhibitors, 3 μM CHIR99021 (Selleck, S1263), 10 μM SU5402 (Selleck, S7667) and 10 μM DAPT (Selleck, S2215). […]
Cells were treated with vincristine from 0.001-1 μM for 24 hours and immunolabeled with peripherin antibody. Quantification of network was done using ImageJ and MIPAR. […]

TRPV1 = TRPV1 expression in iPSC-derived sensory neurons (RT-qPCR); type: cell-based, human; conditions: rifampicin 48 hours ahead of paclitaxel
ATF-3 = ATF-3 expression in iPSC-derived sensory neurons (RT-qPCR); type: cell-based, human; conditions: rifampicin 48 hours ahead of paclitaxel
P-gp (ABCB1) [3] = assay: P-gp expression in iPSC-derived Schwann cell precursors (RT-qPCR); type: cell-based; conditions: rifampicin 48 hours, Schwann cell precursors derived from iPSC
P-gp (ABCB1) [4] = conditions: rifampicin, 48 hours treatment, low concentrations

CO[C@H]1/C=C/O[C@@]2(C)Oc3c(C)c(O)c4c(O)c(c(/C=N/N5CCN(C)CC5)c(O)c4c3C2=O)NC(=O)/C(C)=C\C=C\[C@H](C)[C@H](O)[C@@H](C)[C@@H](O)[C@@H](C)[C@H](OC(C)=O)[C@@H]1C [rifampicin]
protection against paclitaxel damage [1]: can protect against this damage
effect on vincristine-induced neurotoxicity [2]: substantially alleviated
effect on paclitaxel-induced TRPV1 expression (TRPV1): protects against these transcriptional changes
effect on paclitaxel-induced ATF-3 expression (ATF-3): protects against these transcriptional changes
expression of P-gp relative to control (0.2% DMSO) (P-gp (ABCB1) [3]): increased in a dose-dependent manner
expression of the P-gp drug transporter (P-gp (ABCB1) [4]): significantly increases
